# Assay results

Data taken from PubChem BioAssay AID1224904, deposited by Broad Institute (2016).

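293T-iDUX4 dual-reporter cells; luminescence of the tet-on Italica luciferase control is read after 24 h. The test concentration is not given here. Percent change in the Italica control signal; more negative values mean stronger inhibition, which points to nonspecific, tet-on or cytotoxic effects.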

Values are in %. Common to all entries: measured here: Italica tet-on control reporter. This is a side read-out of the assay, for part of the compounds, not drawn at random.

| # | structure | activity change (%) |
|---|---|---|
| 1 | `O=C(C[C@H]1CC[C@H]2[C@@H](COC[C@@H](O)CN2CC2CCCCC2)O1)NCc1ccc(Cl)cc1` | -40.34 |
| 2 | `COc1ccc2c3c(n(C)c2c1)[C@H](CO)N(Cc1cccc(Cl)c1)CC31CN(C(C)=O)C1` | -29.29 |
| 3 | `O=C(NCC(F)(F)F)[C@H]1[C@H](CO)[C@H]2Cn3c(cccc3=O)[C@@H]1N2C(=O)C1CCCC1` | -7.338 |
| 4 | `O=C(C[C@H]1CC[C@H]2[C@@H](COC[C@@H](O)CN2S(=O)(=O)c2ccc(Cl)cc2)O1)NCc1ccc(Cl)c(Cl)c1` | -32.25 |
| 5 | `COc1ccccc1NC(=O)N1CCCCN2[C@@H](CO)[C@@H](c3ccc(C#CC4CCCC4)cc3)[C@@H]2C1` | -75.82 |
| 6 | `COc1ccccc1CN1[C@@H](CO)[C@@H](c2ccccc2)C12CN(C(=O)Cc1ccccc1)C2` | -19.89 |
| 7 | `CN1c2ccc(-c3ccccc3)cc2[C@@H]2[C@@H](CCN2C(=O)CC2CC2)[C@H]1CO` | -13.91 |
| 8 | `CN(C)c1ccc2c(c1)[C@@H]1C[C@H](CC(=O)N3CCc4ccccc4C3)O[C@@H](CO)[C@@H]1O2` | -7.608 |
| 9 | `C/C=C/c1ccc(C2[C@@H]3CN(C(=O)Nc4ccc(C(F)(F)F)cc4)C[C@H]2N3)cc1` (stereo partly specified) | -91.33 |
| 10 | `CC(C)NC(=O)N1[C@@H](CO)[C@@H](c2ccccc2)C12CN(Cc1ccc(Cl)cc1)C2` | -19.22 |
| 11 | `COc1ccc2c3c([nH]c2c1)[C@@H](CO)N(Cc1ccc(Cl)cc1)CC31CN(S(C)(=O)=O)C1` | -10.03 |
| 12 | `O=C(Nc1ccc2c(c1)[C@@H]1C[C@H](CC(=O)N3CCc4ccccc4C3)O[C@@H](CO)[C@@H]1O2)c1ccc2c(c1)OCO2` | -68.9 |
| 13 | `COc1ccc2c3c([nH]c2c1)[C@H](CO)N(Cc1cc(F)ccc1F)CC31CCN(C(C)=O)CC1` | -37.53 |
| 14 | `O=C(Nc1ccc(Cl)cc1)N[C@H]1CC[C@@H](CCn2cc(-c3ccccc3F)nn2)O[C@H]1CO` | -31.52 |
| 15 | `O=S(=O)(Cc1ccccc1)N1CCCCN2[C@H](CO)[C@@H](c3ccc(-c4ccc(F)cc4)cc3)[C@H]2C1` | -10.53 |
| 16 | `O=C(Nc1ccccc1F)N1CCCCN2[C@H](C1)[C@@H](c1ccc(/C=C/c3ccccc3)cc1)[C@@H]2CO` | -41.93 |
| 17 | `O=C(C[C@H]1C[C@H]2c3cc(NC(=O)c4ccc5c(c4)OCO5)ccc3O[C@H]2[C@@H](CO)O1)NCc1ccc(Oc2ccccc2)cc1` | -67.49 |
| 18 | `O=S(=O)(c1cccs1)N1CCCCN2[C@H](CO)[C@H](c3ccc(/C=C/c4ccccc4)cc3)[C@@H]2C1` | -85.36 |
| 19 | `O=C(C[C@@H]1CC[C@@H]2[C@H](COC[C@H](O)CN2Cc2ccc(Oc3ccccc3)cc2)O1)N1CCCCC1` | -60.52 |
| 20 | `O=C(c1ccccc1F)N1CC(=O)N2[C@H](CO)[C@@H](c3ccc(-c4ccc(F)cc4)cc3)[C@H]2C1` | -9.226 |
| 21 | `O=C(CC1CC1)Nc1ccc2c(c1)[C@@H]1C[C@@H](CC(=O)NC3CCCCC3)O[C@@H](CO)[C@@H]1O2` | -10.61 |
| 22 | `COc1cccc(-c2ccc3c(c2)[C@@H]2[C@@H](CCN2C(=O)NC2CCCC2)[C@H](CO)N3C)c1` | -51.06 |
| 23 | `COc1ccc2c3c([nH]c2c1)[C@H](CO)N(C)CC31CCN(S(=O)(=O)c2cccc(F)c2)CC1` | -20.78 |
| 24 | `O=C(c1ccccc1)N1CC2(C1)[C@H](c1ccccc1)[C@H](CO)N2Cc1cc(F)ccc1F` | -31.03 |
| 25 | `C[C@H]1CN([C@@H](C)CO)C(=O)c2c(c3ccccc3n2C)-c2ccccc2CO[C@H]1CN(C)C(=O)Nc1cccc(F)c1` | -59.35 |
| 26 | `O=C(c1ccc(F)cc1)N1CC(=O)N2[C@H](CO)[C@H](c3ccc(C#CCC4CCCC4)cc3)[C@@H]2C1` | -5.958 |
| 27 | `C[C@@H]1CN([C@@H](C)CO)C(=O)c2c(c3ccccc3n2C)-c2ccccc2CO[C@H]1CN(C)CC1CCCCC1` | -16.59 |
| 28 | `O=C(Nc1ccc(F)cc1)N1CC(=O)N2[C@H](C1)[C@H](c1ccc(C#Cc3cccnc3)cc1)[C@@H]2CO` | 9.098 |
| 29 | `CCCNC(=O)[C@@H]1[C@@H](CO)[C@@H]2Cn3c(ccc(C4=CCCCC4)c3=O)[C@@H]2N1Cc1ccccc1F` | -9.355 |
| 30 | `COc1ccc2c3c(n(C)c2c1)[C@H](CO)NCC31CCN(S(=O)(=O)c2cccc(C)c2)CC1` | -12.51 |
| 31 | `Cc1ccc(-c2ccc([C@@H]3[C@H]4CN(C(=O)Nc5ccccc5)CCCCN4[C@H]3CO)cc2)cc1` | -8.982 |
| 32 | `C[C@H]1CN([C@@H](C)CO)C(=O)CCCn2nncc2CO[C@@H]1CN(C)Cc1ccc(Oc2ccccc2)cc1` | -4.948 |
| 33 | `COc1ccc2c3c(n(C)c2c1)[C@H](CO)N(Cc1ccccc1Cl)CC31CCN(C(=O)CC2CC2)CC1` | -16.06 |
| 34 | `N#C[C@H]1[C@H](c2ccccc2C2=CCCCC2)[C@H](CO)N1C(=O)c1cccc(F)c1` | 2.623 |
| 35 | `COc1ccc2c3c([nH]c2c1)[C@@H](CO)N(Cc1ccncc1)CC31CCN(Cc2ccc(-c3ccccn3)cc2)CC1` | -52.05 |
| 36 | `O=C(c1cccc(F)c1)N1CC[C@@H]2[C@H](CO)Nc3ccc(-c4cccc(F)c4)cc3[C@@H]21` | 5.182 |
| 37 | `COc1ccc2c3c([nH]c2c1)[C@@H](CO)N(S(=O)(=O)c1cn(C)cn1)CC31CCN(Cc2ccccc2F)CC1` | -74.01 |
| 38 | `COc1ccccc1NC(=O)N1CCCCN2[C@H](CO)[C@@H](c3ccc(-c4cccc(C#N)c4)cc3)[C@@H]2C1` | -48.09 |
| 39 | `O=S(=O)(c1cccc(F)c1)N1CC[C@@H]2[C@@H](CO)Nc3ccc(-c4cccc(F)c4)cc3[C@@H]21` | -49.83 |
| 40 | `C[C@H]1CN([C@@H](C)CO)C(=O)c2c(c3ccccc3n2C)-c2ccccc2CO[C@H]1CN(C)S(=O)(=O)c1ccc([N+](=O)[O-])cc1` | -90.9 |
| 41 | `c1ccc(CN2C[C@@H]3N[C@H](C2)C3c2ccc(-c3ccncc3)cc2)cc1` (stereo partly specified) | 0.1983 |
| 42 | `O=C(Nc1ccccc1)Nc1ccc2c(c1)[C@@H]1C[C@@H](CC(=O)N3CCCCC3)O[C@@H](CO)[C@@H]1O2` | -2.292 |
| 43 | `COc1cccc(-c2ccc3c(c2)[C@@H]2[C@@H](CCN2S(=O)(=O)c2ccccc2C)[C@H](CO)N3C)c1` | -58.97 |

Some entries from above, unchanged:

structure	activity change (%)
COc1ccc2c3c(n(C)c2c1)[C@H](CO)N(Cc1ccccc1Cl)CC31CCN(C(=O)CC2CC2)CC1	-16.06
COc1ccc2c3c([nH]c2c1)[C@@H](CO)N(S(=O)(=O)c1cn(C)cn1)CC31CCN(Cc2ccccc2F)CC1	-74.01
O=C(CC1CC1)Nc1ccc2c(c1)[C@@H]1C[C@@H](CC(=O)NC3CCCCC3)O[C@@H](CO)[C@@H]1O2	-10.61
CN1c2ccc(-c3ccccc3)cc2[C@@H]2[C@@H](CCN2C(=O)CC2CC2)[C@H]1CO	-13.91
CC(C)NC(=O)N1[C@@H](CO)[C@@H](c2ccccc2)C12CN(Cc1ccc(Cl)cc1)C2	-19.22